{
  "source": "paper doi:10.1101/2022.05.10.491326",
  "binders": {"B1": {"name": "MKT1 (protein, UniProt Q587E3 1-735)", "chain": "MYPRHDDVSLFQRFVNDHKLEEKGLPLYQLAQLEGTDQVMLGVDGTKIIDMITQAVREREKMAIYTYTTPYTVYEKINEFRTMFQSIKNCTPVFVFNGIQYSPDSAEEFGREKNVVPSEVAALTGTDSSRLSNTTNVRFAEIHKKTANRFVVEEDVEGQIIRIFRSEFKNTIRAPYLAWAQLSSFRHCNHRHISEVYGCLELLAFPGIDRVVTNINPTRGTFDVVYKARVLEAARLSEEDLSSLILVESRSRVMRTVTLKFSSLEDMIKKVVRYKGSTIGASFAQQLHEEAIRASEANRMRASNQRGAAFRNLSAFASPVLTLTPPHCLPLHFLYGIPGFPHADAESFVGLPLPPVLYYIMSAGLLSPSLFAAVSQETVVDDWPLVDSIKYRDVAETVLPLRVQTIYQLAWTMSRGLGSISWFRRYNVLPARVSKLHVPPAIQLDGWALHSVTVPRGLHLVDVMEFAHLACSVDQVIYNTMEETYAAILLQSLDLLGYLTHETQDLHEEGQSSEPSTFGRALQLCSVPTLSEYTVLLIELARTNAISTEPFRITTEEVSPRDTPRDIVFASRVLSIIPLNVSGPWTAPIDAELAAFSMLSRMISRSIRQLLEAITTLMFSKGRTHVPLHRIGEIQRLLPFSTPVEFGCGVLVEYMLMKDKCTLKDLEEAFPECTYLRHDLATLFYFWDLAVQVLQRIETKENFCVDQHCLSSANERMKRAQKNLNILTGVRETYY"}, "B2": {"name": "an IMP dehydrogenase (enzyme, UniProt P50098 1-512)", "chain": "MENTNLRTKTLRDGTTAEELFSQDGLSFNDFIILPGFIDFDSSKVNVSGQFTKNILLHLPLVSSPMDTVTESSMARAMALMGGIGVIHNNCTVEQQARMVRSVKLYRNGFIMKPKSVSPDVPVSTIRNIKSEKGISGILVTEGGKYDGKLLGIVCTKDIDFVKDASAPVSQYMTRRENMTVERYPIKLEEAMDVLNRSRHGYLPVLNDKDEVVCLCSRRDAVRARDYPNSSLDRNGHLLCAAATSTREADKGRVAALSEAGIDVLVLDSSQGNTIYQVSFIRWVKKTYPHLEVVAGNVVTQDQAKNLIDAGADSLRIGMGSGSICITQEVLACGRPQATAIYKVARYAASRGVPCVADGGLRNVGDVCKALAVGANVAMLGSMIAGTSETPGEYFFKDGMRLKGYRGMGSIDAMLQGRESGKRYLSENETLQVAQGVAGAVLDKGSVLKLLAYIHKGLQQSAQDIGEVSFDAIREKVYEGQVLFNRRTLTAQSEGAVHSLHHYERKLFASKL"}, "B3": {"name": "PBP1 (protein, UniProt Q57UZ7 1-550)", "chain": "MEGSHSSNMERLEYLYLNLVGQVVQVRLVDDMCVEGLFVACTDVDAETDAGIMICCTRNLASAKRSPLSPSCVNFTDDLFIPYQSIVMIEVQNAKIRTETPGRPDTGRADFSATKFDWADDGVSELLESEPHQTGTWNQFEANEKSFGVKTTYKEEFYTTRLDHSKITEEQRAQADRLAREIESSSTRGIAHRMEREECLHDDEGLDEGQLYSDVHRPQEKKPPYVPPSTGGRKLVNEPPPVPAAAAPATAPTTAPAAAPAPAAAPPAAAPAAAAPPPPPAATSMADDGSMRHKRMNEDPHHMQYDANQTAAGFNPAAAPYTPMKPGAAVPVVDFLASLADAISNNDMCYDCEPHWPGMCNLFYDQDDSSYSQQNYEAAAMPPSHSMNMHMYVNSQPNIPNAHRGYQGPLGRVPHNQSMPMHHMQGQGFHHEMHHHQAFHGMGNYSSQHHNPPIQEYAPHKGQQGVVSRPGMRQGKGGGASRVEPQQPVSANTASSPPPVPTVDSAPNEVKPPAKLQRGRGMAAFTKGDMDGDSGATTNATGGPKKRVGK"}, "B4": {"name": "PUF1 (protein, UniProt Q962F5 1-572)", "chain": "MSSDEETITTLYLRRQNILKQLSEVNNEIRTAEQQINEKSNNNETRRVEELVVKFGGDDDRESYLLDFCMRDANGLREAIRYVDALKALKECTSDDEVNRKKHLSRNTFVHAMIARSGELMVDANGSELIQHALGMLKSGGKVAPVLYSTDYIAASESDLSEFLLLLEVLKDKIPQICCDTNGSRAMQKVFDSLKSLEEVEFSAQCFSECIIELCKDIDGNHAVSRLLAAARGTPLWESGAAGDDSSSKLAHIHQLLYGKFPESCVDVCGNRHGCCVIQKCLQWAPEPYFSTLMDTIVHDTIKLVHDPFGNYVIQFILDHEQELSQRSSTGSEGADYTNRIIRQMLHNVAALSCNKFCSNVIEKCLKSATPDVRQLLVDELTDPQILPKLLTDSFANYVIQTAIVTSTEEKQFTQLRDSIMPLQRMLKNSPHGVKVESKLVRQQRELARKNGNQKNKKRWAQPAPQVMEKGMHEGFIGTHILPGMAGIPTIVGTDEFGGPALSLPGVAKEAVPIMTPTQYMPLMLPGQQTLIGLPQGYPQQQFPMDIMKGGNIWDPQQGFTLLHHPESKKGT"}},
  "experiment_in_all_cases": "affinity purification with mass spectrometry",
  "key": {"[1]": {"biological_target": "EIF4E6-PTP (Trypanosoma brucei) (UniProt Q57V43)"}, "[2]": {"biological_target": "EIF4E3-PTP (Trypanosoma brucei) (UniProt Q383A4)"}, "[3]": {"biological_target": "EIF4E5-PTP (Trypanosoma brucei) (UniProt Q38B99)"}},
  "note": "Results are given in words; binding and its absence hold for the method and conditions named. In cells and extracts the contact can be indirect. A yes stands for co-enrichment or nearness to the bait. Other partners may have been found. For part of these data: A no says only that the protein was not detected with the bait.",
  "data": [
    {"binder": "B1", "values": [
      {"measurement": "binding", "setting": "[1]", "value": "binds"},
      {"measurement": "binding", "setting": "[2]", "value": "binds"}
    ]},
    {"binder": "B2", "values": [
      {"measurement": "binding", "setting": "[3]", "value": "binds"},
      {"measurement": "binding", "setting": "[2]", "value": "binds"}
    ]},
    {"binder": "B3", "values": [
      {"measurement": "binding", "setting": "[1]", "value": "binds"}
    ]},
    {"binder": "B4", "values": [
      {"measurement": "binding", "setting": "[3]", "value": "no binding"}
    ]}
  ]
}
